Data from PMC12510877.
These are yes or no findings as the source states them, for the method shown. Some entries that bind do so weakly or less than the wild type.

What was measured:
[1] = biological target: T1, bovine PDE6 alpha subunit (bovine (endogenous in rod outer segment membranes)) (UniProt P11541); assay: native MS; endogenous PDE6 complex isolated as a whole from rod outer segment disc membranes; 200 mM ammonium acetate, pH 7.0; the heterotetramer (30+; m/z 7250 ± 5) selected with the quadrupole and fragmented by IRMPD (8.4 W, 5 ms); subunits identified from the fragments; both purified
T1 sequence: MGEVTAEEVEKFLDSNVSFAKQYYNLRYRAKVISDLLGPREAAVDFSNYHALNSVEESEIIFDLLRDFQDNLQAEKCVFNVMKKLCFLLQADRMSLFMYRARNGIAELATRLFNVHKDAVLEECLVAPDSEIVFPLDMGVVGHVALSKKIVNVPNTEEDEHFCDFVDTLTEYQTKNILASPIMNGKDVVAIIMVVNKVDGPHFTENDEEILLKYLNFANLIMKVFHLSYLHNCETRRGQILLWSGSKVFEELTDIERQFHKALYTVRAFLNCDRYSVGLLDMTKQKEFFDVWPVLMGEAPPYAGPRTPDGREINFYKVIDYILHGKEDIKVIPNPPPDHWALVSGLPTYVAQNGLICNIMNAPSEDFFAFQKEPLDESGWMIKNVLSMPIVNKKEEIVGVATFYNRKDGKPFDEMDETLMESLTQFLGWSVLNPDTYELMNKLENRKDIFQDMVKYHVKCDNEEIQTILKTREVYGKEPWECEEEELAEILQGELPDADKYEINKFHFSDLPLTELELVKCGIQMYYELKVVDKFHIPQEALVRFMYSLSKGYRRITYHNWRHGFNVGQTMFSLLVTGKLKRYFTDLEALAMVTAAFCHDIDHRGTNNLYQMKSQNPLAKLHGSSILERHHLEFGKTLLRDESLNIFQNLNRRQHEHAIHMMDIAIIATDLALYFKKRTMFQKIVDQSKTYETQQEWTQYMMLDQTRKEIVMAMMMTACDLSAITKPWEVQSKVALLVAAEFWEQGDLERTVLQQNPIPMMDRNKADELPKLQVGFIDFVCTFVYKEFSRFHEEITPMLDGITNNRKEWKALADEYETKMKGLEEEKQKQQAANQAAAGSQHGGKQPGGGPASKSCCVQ

[2] = biological target: T2, bovine PDE6 beta subunit (bovine (endogenous in rod outer segment membranes)) (UniProt P23439); assay: as above
T2 sequence (chain, C-terminal geranylgeranylation (complete)): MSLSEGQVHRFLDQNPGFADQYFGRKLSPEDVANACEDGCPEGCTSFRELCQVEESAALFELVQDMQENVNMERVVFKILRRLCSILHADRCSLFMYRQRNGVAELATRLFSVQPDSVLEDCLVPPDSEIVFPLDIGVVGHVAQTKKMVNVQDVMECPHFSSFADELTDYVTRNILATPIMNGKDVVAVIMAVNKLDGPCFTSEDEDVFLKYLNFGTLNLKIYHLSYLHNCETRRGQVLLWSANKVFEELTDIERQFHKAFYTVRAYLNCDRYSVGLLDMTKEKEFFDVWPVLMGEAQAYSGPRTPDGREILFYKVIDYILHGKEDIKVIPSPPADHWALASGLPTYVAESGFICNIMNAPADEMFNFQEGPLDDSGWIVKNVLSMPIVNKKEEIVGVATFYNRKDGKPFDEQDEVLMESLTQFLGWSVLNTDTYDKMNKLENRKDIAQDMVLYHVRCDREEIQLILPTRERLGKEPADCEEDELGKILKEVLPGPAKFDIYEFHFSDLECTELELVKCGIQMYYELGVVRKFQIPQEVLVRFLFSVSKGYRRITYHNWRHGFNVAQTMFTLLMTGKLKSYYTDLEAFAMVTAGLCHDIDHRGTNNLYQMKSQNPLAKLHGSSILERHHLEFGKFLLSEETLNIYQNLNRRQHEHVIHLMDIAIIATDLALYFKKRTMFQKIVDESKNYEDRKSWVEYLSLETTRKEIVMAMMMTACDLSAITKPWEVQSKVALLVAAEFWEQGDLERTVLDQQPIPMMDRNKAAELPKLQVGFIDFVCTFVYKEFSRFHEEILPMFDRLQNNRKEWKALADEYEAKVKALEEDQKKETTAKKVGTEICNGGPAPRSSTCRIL

binding [1]: binds
binding [2]: binds
B1: bovine PDE6 gamma subunit (protein, UniProt P04972 1-87)
chain: MNLEPPKAEIRSATRVMGGPVTPRKGPPKFKQRQTRQFKSKPPKKGVQGFGDDIPGMEGLGTDITVICPWEAFNHLELHELAQYGII
